Results published in PMC3102665, “A Sir2-Like Protein Participates in Mycobacterial NHEJ” (PLoS ONE, 2011).

Molecular target: T1, GST-MtuSir2 fusion protein (M. tuberculosis) (UniProt P9WGG3)
T1 sequence: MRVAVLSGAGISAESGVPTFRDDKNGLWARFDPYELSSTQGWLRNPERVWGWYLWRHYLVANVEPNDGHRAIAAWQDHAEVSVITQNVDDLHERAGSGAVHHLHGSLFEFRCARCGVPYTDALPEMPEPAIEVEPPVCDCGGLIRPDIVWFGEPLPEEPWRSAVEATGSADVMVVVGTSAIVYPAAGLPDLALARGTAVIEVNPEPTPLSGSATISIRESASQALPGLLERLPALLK
Assay: pull-down; both purified

His-MtuKu protein (M. tuberculosis) was tested, and the binding was “binds”.

Results are given in words; binding and its absence hold for the method and conditions named. A result given as binding can be weak or reduced; the word gives no strength. Tags and fused reporters may be left off the sequences shown.
